According to article PMC4836274:
Results are given in words; binding and its absence hold for the method and conditions named. For some of these results: Binding seen in cells or lysates may run through a third protein. Some binding calls cover weakened binding; strength is not graded here. For some of these results: Tags and fused reporters may be left off the sequences shown.

By UniProt entry, the sequences of proteins in these tests, tags left out. Where a name states a change or a piece, a line headed by the entry shows the natural chain unless it says otherwise. Residues count along the entry.
UniProt Q92673: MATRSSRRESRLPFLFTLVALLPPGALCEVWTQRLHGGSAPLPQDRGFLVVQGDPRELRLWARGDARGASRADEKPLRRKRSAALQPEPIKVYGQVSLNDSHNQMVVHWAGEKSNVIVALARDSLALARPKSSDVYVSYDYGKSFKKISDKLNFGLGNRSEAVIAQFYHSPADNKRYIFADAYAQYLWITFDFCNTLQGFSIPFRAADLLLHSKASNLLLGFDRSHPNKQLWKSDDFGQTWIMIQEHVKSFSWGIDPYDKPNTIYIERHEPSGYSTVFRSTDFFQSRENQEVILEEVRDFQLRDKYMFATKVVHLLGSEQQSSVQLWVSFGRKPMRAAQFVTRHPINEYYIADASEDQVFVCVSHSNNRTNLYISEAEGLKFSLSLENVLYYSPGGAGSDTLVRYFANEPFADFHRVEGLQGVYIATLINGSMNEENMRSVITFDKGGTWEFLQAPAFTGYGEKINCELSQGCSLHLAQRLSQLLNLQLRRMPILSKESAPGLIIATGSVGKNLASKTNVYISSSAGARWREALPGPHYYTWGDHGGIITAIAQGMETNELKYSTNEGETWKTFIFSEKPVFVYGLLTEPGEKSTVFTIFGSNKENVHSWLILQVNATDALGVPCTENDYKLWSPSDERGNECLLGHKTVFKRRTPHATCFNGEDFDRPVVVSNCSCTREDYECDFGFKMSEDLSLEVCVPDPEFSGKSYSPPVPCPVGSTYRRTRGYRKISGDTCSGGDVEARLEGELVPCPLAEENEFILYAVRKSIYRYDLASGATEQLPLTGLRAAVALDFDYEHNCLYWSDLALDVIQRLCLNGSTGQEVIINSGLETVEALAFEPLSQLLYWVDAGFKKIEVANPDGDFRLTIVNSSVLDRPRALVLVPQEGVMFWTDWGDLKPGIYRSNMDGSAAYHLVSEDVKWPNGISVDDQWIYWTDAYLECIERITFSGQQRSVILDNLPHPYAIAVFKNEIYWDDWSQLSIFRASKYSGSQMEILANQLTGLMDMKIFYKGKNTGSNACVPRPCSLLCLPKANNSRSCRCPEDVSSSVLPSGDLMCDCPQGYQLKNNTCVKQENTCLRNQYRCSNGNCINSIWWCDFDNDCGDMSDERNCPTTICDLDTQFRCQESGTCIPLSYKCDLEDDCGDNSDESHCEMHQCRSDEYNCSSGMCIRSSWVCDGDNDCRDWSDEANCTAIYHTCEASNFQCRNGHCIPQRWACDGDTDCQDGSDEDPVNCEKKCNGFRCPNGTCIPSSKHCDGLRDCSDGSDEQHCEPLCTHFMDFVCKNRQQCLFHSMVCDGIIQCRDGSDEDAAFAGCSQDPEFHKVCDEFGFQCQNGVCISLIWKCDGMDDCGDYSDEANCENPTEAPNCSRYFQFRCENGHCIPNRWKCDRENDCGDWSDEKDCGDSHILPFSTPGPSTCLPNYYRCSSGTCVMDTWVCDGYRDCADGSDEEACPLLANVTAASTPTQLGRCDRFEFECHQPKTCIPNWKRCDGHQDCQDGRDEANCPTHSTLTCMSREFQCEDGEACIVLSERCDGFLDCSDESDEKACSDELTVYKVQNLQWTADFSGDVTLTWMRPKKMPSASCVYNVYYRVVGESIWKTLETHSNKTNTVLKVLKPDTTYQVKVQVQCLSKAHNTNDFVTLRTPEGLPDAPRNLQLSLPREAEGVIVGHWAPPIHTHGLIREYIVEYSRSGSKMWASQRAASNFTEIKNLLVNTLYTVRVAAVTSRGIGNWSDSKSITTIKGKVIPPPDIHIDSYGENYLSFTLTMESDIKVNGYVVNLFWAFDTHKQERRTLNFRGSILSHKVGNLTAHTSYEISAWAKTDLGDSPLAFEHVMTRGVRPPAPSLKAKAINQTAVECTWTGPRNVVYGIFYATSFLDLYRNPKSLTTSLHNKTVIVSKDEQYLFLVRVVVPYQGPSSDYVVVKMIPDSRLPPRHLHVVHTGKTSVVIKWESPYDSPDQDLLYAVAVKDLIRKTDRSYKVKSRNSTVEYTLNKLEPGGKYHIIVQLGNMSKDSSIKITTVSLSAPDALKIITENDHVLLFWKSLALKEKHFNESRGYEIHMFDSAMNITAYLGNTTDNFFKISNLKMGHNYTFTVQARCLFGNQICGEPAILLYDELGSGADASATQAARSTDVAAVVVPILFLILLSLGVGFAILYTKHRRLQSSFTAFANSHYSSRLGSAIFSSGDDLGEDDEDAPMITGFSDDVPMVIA
full-length sorLA in transfected HEK293 cells: residues 82-2214 of Q92673
soluble sorLA (entire luminal part of sorLA): residues 82-2137 of Q92673

What was measured:
[1] = target: full-length sorLA in transfected HEK293 cells (human) (UniProt Q92673); test: cross-linking + co-IP; HEK293 double transfectants cross-linked with DSP, lysed in 1% Triton X-100, precipitated with anti-sorLA or anti-Myc, SDS-PAGE with and without DTT, immunoblot
[2] = target: soluble sorLA (entire luminal part of sorLA) (human) (UniProt Q92673); test: SPR; Biacore 3000, CM5 chip; soluble sorLA (entire luminal part) immobilised at 66 to 86 fmol/mm^2; 25°C; 10 mM HEPES, 150 mM NaCl, 1.5 mM CaCl2, 1 mM EGTA, 0.005% Tween 20, pH 7.4; Langmuir 1:1 model, global fitting; both purified
[3] = target: soluble sorLA (entire luminal part of sorLA) (human) (UniProt Q92673); test: SPR; inhibition by RAP of ligand binding to immobilised sorLA; data not shown; both purified
[4] = target: soluble sorLA (entire luminal part of sorLA) (human) (UniProt Q92673); test: SPR; immobilised sorLA preincubated with buffer or with 5 μM inhibitor (sorLA propeptide or RAP) before the ligand was added; both purified

binding [1] | binding [2] | binding [3] | binding [4] | Binder
binds |  |  |  | CNTFRα-Myc (receptor, UniProt P26992 23-342) QRHSPQEAPHVQYERLGSDVTLPCGTANWDAAVTWRVNGTDLAPDLLNGSQLVLHGLELGHSGLYACFHRDSWHLRHQVLLHVGLPPREPVLSCRSNTYPKGFYCSWHLPTPTYIPNTFNVTVLHGSKIMVCEKDPALKNRCHIRYMHLFSTIKYKVSISVSNALGHNATAITFDEFTIVKPDPPENVVARPVPSNPRRLEVTWQTPSTWPDPESFPLKFFLRYRPLILDQWQHVELSDGTAHTITDAYAGKEYIIQVAAKDNEIGTWSDWSVAAHATPWTEEPRHLTTEAQAAETTTSTTSSLAPPPTTKICDPGELGS
 | no binding |  |  | ciliary neurotrophic factor (ligand, UniProt P26441 1-200) MAFTEHSPLTPHRRDLCSRSIWLARKIRSDLTALTESYVKHQGLNKNINLDSADGMPVASTDQWSELTEAERLQENLQAYRTFHVLLARLLEDQQVHFTPTEGDFHQAIHTLLLQVAAFAYQIEELMILLEYKIPRNEADGMPINVGDGGLFEKKLWGLKVLQELSQWTVRSIHDLRFISSHQTGIPARGSHYIANNKKM
 |  | binds | binds | cardiotrophin-like cytokine:cytokine-like factor-1 heterodimer (complex, UniProt Q9UBD9 28-225; O75462 38-422) chain 1: LNRTGDPGPGPSIQKTYDLTRYLEHQLRSLAGTYLNYLGPPFNEPDFNPPRLGAETLPRATVDLEVWRSLNDKLRLTQNYEAYSHLLCYLRGLNRQAATAELRRSLAHFCTSLQGLLGSIAGVMAALGYPLPQPLPGTEPTWTPGPAHSDFLQKMDDFWLLKELQTWLWRSAKDFNRLKKKMQPPAAAVTLHLGAHGF chain 2: AHTAVISPQDPTLLIGSSLLATCSVHGDPPGATAEGLYWTLNGRRLPPELSRVLNASTLALALANLNGSRQRSGDNLVCHARDGSILAGSCLYVGLPPEKPVNISCWSKNMKDLTCRWTPGAHGETFLHTNYSLKYKLRWYGQDNTCEEYHTVGPHSCHIPKDLALFTPYEIWVEATNRLGSARSDVLTLDILDVVTTDPPPDVHVSRVGGLEDQLSVRWVSPPALKDFLFQAKYQIRYRVEDSVDWKVVDDVSNQTSCRLAGLKPGTVYFVQVRCNPFGIYGSKKAGIWSEWSHPTAASTPRSERPGPGGGACEPRGGEPSSGPVRRELKQFLGWLKKHAYCSNLSFRLYDQWRAWMQKSHKTRNQDEGILPSGRRGTARGPAR
 | no binding (tested: 250 nM) |  |  | cardiotrophin-like cytokine (ligand, UniProt Q9UBD9 28-225) LNRTGDPGPGPSIQKTYDLTRYLEHQLRSLAGTYLNYLGPPFNEPDFNPPRLGAETLPRATVDLEVWRSLNDKLRLTQNYEAYSHLLCYLRGLNRQAATAELRRSLAHFCTSLQGLLGSIAGVMAALGYPLPQPLPGTEPTWTPGPAHSDFLQKMDDFWLLKELQTWLWRSAKDFNRLKKKMQPPAAAVTLHLGAHGF
 |  | binds | binds | CLF-1–His (His-tagged cytokine-like factor-1) (protein, UniProt O75462 38-422) AHTAVISPQDPTLLIGSSLLATCSVHGDPPGATAEGLYWTLNGRRLPPELSRVLNASTLALALANLNGSRQRSGDNLVCHARDGSILAGSCLYVGLPPEKPVNISCWSKNMKDLTCRWTPGAHGETFLHTNYSLKYKLRWYGQDNTCEEYHTVGPHSCHIPKDLALFTPYEIWVEATNRLGSARSDVLTLDILDVVTTDPPPDVHVSRVGGLEDQLSVRWVSPPALKDFLFQAKYQIRYRVEDSVDWKVVDDVSNQTSCRLAGLKPGTVYFVQVRCNPFGIYGSKKAGIWSEWSHPTAASTPRSERPGPGGGACEPRGGEPSSGPVRRELKQFLGWLKKHAYCSNLSFRLYDQWRAWMQKSHKTRNQDEGILPSGRRGTARGPAR
